The record followed here is the supplement of paper PMC6411743.

Chains of the proteins cited; added tags and fusions are not shown. Lines headed by an entry give the natural chain unless they say otherwise; changes in a name come on top.
UniProt P35240: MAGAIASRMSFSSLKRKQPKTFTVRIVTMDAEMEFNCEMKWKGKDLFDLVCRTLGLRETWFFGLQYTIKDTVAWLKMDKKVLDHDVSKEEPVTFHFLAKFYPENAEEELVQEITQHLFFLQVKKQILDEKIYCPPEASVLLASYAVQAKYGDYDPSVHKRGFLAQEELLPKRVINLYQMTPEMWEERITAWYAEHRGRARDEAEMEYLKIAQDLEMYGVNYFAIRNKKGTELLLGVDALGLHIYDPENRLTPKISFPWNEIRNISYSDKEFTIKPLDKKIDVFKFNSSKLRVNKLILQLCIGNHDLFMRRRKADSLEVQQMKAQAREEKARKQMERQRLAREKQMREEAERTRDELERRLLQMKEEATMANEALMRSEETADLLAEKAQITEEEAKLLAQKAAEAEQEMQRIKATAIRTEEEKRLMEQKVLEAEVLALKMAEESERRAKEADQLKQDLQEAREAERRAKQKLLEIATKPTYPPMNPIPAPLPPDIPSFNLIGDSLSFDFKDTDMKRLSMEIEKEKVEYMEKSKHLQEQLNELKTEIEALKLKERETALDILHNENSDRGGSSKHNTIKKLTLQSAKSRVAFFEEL
UniProt P28072: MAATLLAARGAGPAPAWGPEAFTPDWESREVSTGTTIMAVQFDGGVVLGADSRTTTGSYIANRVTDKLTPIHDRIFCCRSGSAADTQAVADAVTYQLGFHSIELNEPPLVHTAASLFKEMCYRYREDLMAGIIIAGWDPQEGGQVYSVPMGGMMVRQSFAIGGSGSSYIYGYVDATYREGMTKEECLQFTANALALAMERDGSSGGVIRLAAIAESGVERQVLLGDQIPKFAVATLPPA
UniProt P31040: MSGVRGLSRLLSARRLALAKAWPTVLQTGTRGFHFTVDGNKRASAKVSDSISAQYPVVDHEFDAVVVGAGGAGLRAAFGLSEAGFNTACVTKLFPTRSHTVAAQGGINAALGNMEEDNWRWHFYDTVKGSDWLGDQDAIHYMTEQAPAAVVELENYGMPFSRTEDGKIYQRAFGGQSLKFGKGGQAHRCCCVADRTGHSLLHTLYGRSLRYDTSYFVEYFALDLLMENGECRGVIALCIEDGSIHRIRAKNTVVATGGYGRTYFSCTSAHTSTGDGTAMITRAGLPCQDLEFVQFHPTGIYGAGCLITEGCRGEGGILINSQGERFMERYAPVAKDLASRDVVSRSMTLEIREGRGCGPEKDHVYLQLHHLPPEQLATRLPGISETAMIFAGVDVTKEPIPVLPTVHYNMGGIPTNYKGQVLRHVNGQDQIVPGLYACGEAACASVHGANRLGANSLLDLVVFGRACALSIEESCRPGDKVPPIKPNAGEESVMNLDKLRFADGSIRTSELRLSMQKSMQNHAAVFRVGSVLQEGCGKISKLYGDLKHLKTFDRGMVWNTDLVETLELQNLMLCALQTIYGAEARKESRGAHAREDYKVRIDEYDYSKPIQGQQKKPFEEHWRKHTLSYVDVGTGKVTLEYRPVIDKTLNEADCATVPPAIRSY
UniProt P20338: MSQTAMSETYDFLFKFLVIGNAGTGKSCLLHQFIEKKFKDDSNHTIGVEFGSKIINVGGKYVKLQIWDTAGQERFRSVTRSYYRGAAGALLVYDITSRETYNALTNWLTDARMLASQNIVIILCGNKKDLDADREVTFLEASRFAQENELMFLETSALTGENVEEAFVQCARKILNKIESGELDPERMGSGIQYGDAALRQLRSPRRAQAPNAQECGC
UniProt P28702: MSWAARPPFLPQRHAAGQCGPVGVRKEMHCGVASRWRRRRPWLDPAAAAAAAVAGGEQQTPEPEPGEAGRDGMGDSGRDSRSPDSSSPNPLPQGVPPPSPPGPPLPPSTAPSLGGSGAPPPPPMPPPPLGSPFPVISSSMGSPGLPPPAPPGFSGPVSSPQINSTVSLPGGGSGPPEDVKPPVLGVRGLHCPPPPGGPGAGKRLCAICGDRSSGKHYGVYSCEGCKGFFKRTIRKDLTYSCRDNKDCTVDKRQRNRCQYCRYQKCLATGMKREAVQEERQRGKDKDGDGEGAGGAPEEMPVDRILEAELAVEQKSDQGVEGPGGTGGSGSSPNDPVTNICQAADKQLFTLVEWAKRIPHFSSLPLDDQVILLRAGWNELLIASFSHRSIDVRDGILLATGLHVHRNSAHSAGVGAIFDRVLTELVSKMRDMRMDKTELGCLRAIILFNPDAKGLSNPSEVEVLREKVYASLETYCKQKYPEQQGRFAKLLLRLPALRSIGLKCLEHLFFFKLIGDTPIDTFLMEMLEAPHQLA
UniProt P31939: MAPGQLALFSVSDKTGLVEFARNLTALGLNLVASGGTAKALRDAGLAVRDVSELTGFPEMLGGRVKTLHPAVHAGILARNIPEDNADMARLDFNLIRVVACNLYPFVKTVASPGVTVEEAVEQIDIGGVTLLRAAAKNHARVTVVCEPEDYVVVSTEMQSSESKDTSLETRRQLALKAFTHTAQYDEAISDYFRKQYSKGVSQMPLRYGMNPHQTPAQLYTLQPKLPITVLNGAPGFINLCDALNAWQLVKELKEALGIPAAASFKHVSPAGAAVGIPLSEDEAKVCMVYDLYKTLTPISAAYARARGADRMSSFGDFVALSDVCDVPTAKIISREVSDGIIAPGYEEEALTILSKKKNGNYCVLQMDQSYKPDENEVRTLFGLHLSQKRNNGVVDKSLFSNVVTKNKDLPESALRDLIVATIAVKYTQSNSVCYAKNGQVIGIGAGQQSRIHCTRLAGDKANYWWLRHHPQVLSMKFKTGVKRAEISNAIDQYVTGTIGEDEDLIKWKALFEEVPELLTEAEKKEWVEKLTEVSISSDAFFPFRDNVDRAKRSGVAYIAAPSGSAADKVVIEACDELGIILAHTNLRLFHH
UniProt P16615: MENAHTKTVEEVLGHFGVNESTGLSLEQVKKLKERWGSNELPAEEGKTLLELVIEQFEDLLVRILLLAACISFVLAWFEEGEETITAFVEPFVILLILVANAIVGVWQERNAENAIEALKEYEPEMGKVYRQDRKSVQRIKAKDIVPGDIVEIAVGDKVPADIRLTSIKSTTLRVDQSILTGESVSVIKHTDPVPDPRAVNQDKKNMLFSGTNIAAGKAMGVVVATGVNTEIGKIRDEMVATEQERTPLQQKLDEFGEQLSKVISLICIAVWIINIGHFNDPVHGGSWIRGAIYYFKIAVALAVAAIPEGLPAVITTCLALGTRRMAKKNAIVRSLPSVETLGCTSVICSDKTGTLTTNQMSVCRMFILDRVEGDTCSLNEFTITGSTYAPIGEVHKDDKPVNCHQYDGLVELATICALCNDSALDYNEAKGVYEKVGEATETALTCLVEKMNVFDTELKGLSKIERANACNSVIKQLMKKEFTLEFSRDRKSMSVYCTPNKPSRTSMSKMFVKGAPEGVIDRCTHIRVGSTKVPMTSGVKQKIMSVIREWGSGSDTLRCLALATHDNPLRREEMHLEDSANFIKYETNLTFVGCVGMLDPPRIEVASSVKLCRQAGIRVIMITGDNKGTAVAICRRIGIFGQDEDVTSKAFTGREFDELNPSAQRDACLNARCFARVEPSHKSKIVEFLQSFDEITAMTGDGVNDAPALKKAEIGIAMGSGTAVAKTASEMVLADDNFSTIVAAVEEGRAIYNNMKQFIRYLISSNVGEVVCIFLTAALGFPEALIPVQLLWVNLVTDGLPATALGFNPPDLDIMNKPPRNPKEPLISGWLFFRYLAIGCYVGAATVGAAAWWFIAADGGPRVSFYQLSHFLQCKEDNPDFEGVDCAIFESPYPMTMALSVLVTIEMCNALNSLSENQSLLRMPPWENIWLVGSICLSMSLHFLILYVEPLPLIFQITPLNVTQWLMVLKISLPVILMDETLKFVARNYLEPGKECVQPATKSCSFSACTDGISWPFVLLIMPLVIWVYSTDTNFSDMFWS
UniProt P23381: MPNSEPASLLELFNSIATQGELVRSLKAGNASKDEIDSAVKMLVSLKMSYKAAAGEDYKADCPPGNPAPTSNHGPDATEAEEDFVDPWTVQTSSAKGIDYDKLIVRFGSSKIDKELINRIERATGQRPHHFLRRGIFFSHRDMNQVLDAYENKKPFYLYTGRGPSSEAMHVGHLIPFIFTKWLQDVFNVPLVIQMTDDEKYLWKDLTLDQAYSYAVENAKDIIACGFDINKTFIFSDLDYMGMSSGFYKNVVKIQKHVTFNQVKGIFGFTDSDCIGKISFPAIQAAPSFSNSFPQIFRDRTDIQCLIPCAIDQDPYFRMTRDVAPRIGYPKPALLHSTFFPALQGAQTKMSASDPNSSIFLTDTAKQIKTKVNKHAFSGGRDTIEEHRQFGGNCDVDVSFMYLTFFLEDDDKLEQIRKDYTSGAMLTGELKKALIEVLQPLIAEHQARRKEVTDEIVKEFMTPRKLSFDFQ
UniProt P26196: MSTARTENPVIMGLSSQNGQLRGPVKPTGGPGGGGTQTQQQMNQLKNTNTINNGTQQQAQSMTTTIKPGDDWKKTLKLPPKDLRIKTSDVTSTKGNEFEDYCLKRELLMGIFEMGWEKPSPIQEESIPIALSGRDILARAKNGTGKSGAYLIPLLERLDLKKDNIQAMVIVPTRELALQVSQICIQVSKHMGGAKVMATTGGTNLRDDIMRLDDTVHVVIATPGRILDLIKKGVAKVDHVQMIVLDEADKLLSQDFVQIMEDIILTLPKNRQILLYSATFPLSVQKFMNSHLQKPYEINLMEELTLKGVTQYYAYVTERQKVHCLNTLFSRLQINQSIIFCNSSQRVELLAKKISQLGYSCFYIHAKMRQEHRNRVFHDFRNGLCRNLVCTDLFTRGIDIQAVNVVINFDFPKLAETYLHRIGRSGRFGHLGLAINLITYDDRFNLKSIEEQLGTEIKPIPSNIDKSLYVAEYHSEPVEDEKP
UniProt P23497: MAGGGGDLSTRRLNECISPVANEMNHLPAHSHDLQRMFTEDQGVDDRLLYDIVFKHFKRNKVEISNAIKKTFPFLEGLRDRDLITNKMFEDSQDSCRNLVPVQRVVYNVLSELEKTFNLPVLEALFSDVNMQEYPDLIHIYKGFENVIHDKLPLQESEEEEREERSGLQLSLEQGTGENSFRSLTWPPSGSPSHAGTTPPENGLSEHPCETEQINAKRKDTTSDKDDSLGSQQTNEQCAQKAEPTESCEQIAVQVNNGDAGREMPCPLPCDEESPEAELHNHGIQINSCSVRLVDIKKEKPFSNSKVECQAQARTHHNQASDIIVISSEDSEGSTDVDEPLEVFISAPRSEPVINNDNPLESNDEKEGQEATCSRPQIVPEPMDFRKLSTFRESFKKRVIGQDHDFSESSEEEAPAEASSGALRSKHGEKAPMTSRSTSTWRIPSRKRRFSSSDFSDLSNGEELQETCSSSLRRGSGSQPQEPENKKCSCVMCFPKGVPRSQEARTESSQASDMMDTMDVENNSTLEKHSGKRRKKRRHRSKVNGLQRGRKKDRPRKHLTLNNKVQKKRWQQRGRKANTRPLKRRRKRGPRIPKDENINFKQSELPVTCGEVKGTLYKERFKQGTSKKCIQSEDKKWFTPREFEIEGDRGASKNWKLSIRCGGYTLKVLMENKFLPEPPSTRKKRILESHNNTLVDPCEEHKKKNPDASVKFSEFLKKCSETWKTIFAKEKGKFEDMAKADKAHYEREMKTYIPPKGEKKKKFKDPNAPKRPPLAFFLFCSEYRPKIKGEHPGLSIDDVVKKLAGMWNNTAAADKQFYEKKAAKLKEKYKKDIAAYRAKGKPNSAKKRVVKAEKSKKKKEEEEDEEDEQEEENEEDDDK

Compound in this assay: Nc1ncnc2c1ncn2[C@@H]1O[C@H](COP(=O)(O)OP(=O)(O)OP(=O)(O)O)[C@@H](O)[C@H]1O [adenosine triphosphate]
Description: NP40-soluble protein abundance relative to vehicle (solubility fold change) (ratio); higher = more soluble protein in presence of ATP. The gist of the method:
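Across three independent experiments, values are fold changes against the detergent-processed vehicle for each replicate, based on vsn-normalised intensities. The samples were Jurkat crude lysate treated with eight concentrations (0.1 to 10 mM) for 10 min at room temperature and then 3 min at 37 °C. Lysate was solubilised with 0.8% NP40 and benzonase, ultracentrifuged, and the supernatant analysed by TMT-labelled LC-MS/MS.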

± gives the standard deviation of the averaged measurements. The list shows a part of the results, in another mix than the full data.

As for UniProt P35240 and related entries, the NP40-soluble protein abundance by setting is: (concentration: 1mM) 0.987 ± 0.034; (concentration: 2mM) 1.01 ± 0.018; (concentration: 4mM) 0.977 ± 0.01; (concentration: 6mM) 1.01 ± 0.062; (concentration: 8mM) 0.93 ± 0.0099; (concentration: 10mM) 1 ± 0.049.
As for PSMB6 (UniProt P28072), the NP40-soluble protein abundance reads like this: (concentration: 1mM) 0.953 ± 0.018; (concentration: 2mM) 0.89 ± 0.026; (concentration: 4mM) 0.894 ± 0.044; (concentration: 6mM) 0.906 ± 0.093; (concentration: 8mM) 0.911 ± 0.056; (concentration: 10mM) 0.892 ± 0.058.
As for SDHA (UniProt P31040), the NP40-soluble protein abundance by setting is: (concentration: 1mM) 1.02 ± 0.054; (concentration: 2mM) 0.994 ± 0.059; (concentration: 4mM) 0.973 ± 0.052; (concentration: 6mM) 0.976 ± 0.085; (concentration: 8mM) 0.993 ± 0.041; (concentration: 10mM) 0.97 ± 0.041.
As to RAB4A (UniProt P20338), the NP40-soluble protein abundance reads like this: (concentration: 1mM) 0.976 ± 0.1; (concentration: 2mM) 1.04 ± 0.12; (concentration: 4mM) 1.05 ± 0.06; (concentration: 6mM) 0.967 ± 0.067; (concentration: 8mM) 1.02 ± 0.068; (concentration: 10mM) 0.967 ± 0.077.
With UniProt P28702 and related entries, the NP40-soluble protein abundance came to 0.915 ± 0.012 (concentration: 1mM); 0.976 ± 0.048 (concentration: 2mM); 0.992 ± 0.043 (concentration: 4mM); 0.995 ± 0.04 (concentration: 6mM); 0.944 ± 0.049 (concentration: 8mM); 0.9378 ± 0.0066 (concentration: 10mM).
ATIC (UniProt P31939): the NP40-soluble protein abundance (concentration: 1mM) amounted to 0.991 ± 0.035; the NP40-soluble protein abundance (concentration: 2mM) was found to be 1.01 ± 0.063; the NP40-soluble protein abundance (concentration: 4mM) came out at 0.966 ± 0.047; the NP40-soluble protein abundance (concentration: 6mM) turned out to be 0.982 ± 0.093; the NP40-soluble protein abundance (concentration: 8mM) came to 0.976 ± 0.056; the NP40-soluble protein abundance (concentration: 10mM) is 0.969 ± 0.071.
ATP2A2 (UniProt P16615): the NP40-soluble protein abundance was 1.03 ± 0.038 (concentration: 1mM); 1.01 ± 0.036 (concentration: 2mM); 0.99 ± 0.035 (concentration: 4mM); 0.98 ± 0.062 (concentration: 6mM); 1.01 ± 0.038 (concentration: 8mM); 0.981 ± 0.03 (concentration: 10mM).
On to RPL7 (UniProt P18124), for which the NP40-soluble protein abundance runs as follows: (concentration: 1mM) 1.02 ± 0.088; (concentration: 2mM) 0.962 ± 0.13; (concentration: 4mM) 0.968 ± 0.11; (concentration: 6mM) 0.88 ± 0.17; (concentration: 8mM) 0.801 ± 0.15; (concentration: 10mM) 0.927 ± 0.14.
In the case of UniProt P22001, the NP40-soluble protein abundance is 0.876 ± 0.11 (concentration: 1mM); 0.955 ± 0.07 (concentration: 2mM); 0.969 ± 0.12 (concentration: 4mM); 0.944 ± 0.05 (concentration: 6mM); 0.848 ± 0.019 (concentration: 8mM); 0.862 ± 0.11 (concentration: 10mM).
For the target WARS (UniProt P23381), the NP40-soluble protein abundance amounted to 0.997 ± 0.077 (concentration: 1mM); 0.973 ± 0.055 (concentration: 2mM); 0.962 ± 0.044 (concentration: 4mM); 0.917 ± 0.1 (concentration: 6mM); 0.963 ± 0.044 (concentration: 8mM); 0.952 ± 0.057 (concentration: 10mM).
As for TUBG1 (UniProt P23258), the NP40-soluble protein abundance runs as follows: (concentration: 1mM) 1.14 ± 0.086; (concentration: 2mM) 1.1 ± 0.054; (concentration: 4mM) 1.09 ± 0.083; (concentration: 6mM) 1.1 ± 0.13; (concentration: 8mM) 1.2 ± 0.099; (concentration: 10mM) 1.16 ± 0.14.
DDX6 (UniProt P26196): the NP40-soluble protein abundance reads like this: (concentration: 1mM) 0.999 ± 0.023; (concentration: 2mM) 0.992 ± 0.034; (concentration: 4mM) 0.981 ± 0.02; (concentration: 6mM) 0.998 ± 0.078; (concentration: 8mM) 1.01 ± 0.011; (concentration: 10mM) 1.05 ± 0.024.
Take VARS (UniProt P26640): the NP40-soluble protein abundance by setting is: (concentration: 1mM) 1.02 ± 0.071; (concentration: 2mM) 0.971 ± 0.05; (concentration: 4mM) 0.966 ± 0.035; (concentration: 6mM) 0.906 ± 0.024; (concentration: 8mM) 0.992 ± 0.022; (concentration: 10mM) 0.944 ± 0.041.
Regarding UniProt P35658 and related entries, the NP40-soluble protein abundance reads like this: (concentration: 1mM) 0.9604 ± 0.0074; (concentration: 2mM) 0.976 ± 0.021; (concentration: 4mM) 1.01 ± 0.012; (concentration: 6mM) 1.04 ± 0.011; (concentration: 8mM) 1.028 ± 0.0092; (concentration: 10mM) 1.08 ± 0.024.
Regarding UniProt P17252, the NP40-soluble protein abundance (concentration: 1mM) turned out to be 0.99 ± 0.02; the NP40-soluble protein abundance (concentration: 2mM) was found to be 0.988 ± 0.041; the NP40-soluble protein abundance (concentration: 4mM) turned out to be 0.945 ± 0.034; the NP40-soluble protein abundance (concentration: 6mM) worked out at 0.986 ± 0.067; the NP40-soluble protein abundance (concentration: 8mM) stood at 0.952 ± 0.051; the NP40-soluble protein abundance (concentration: 10mM) was determined as 0.944 ± 0.043.
WEE1 (UniProt P30291): the NP40-soluble protein abundance by setting is: (concentration: 1mM) 1.14 ± 0.041; (concentration: 2mM) 1.11 ± 0.029; (concentration: 4mM) 1.15 ± 0.069; (concentration: 6mM) 1.16 ± 0.055; (concentration: 8mM) 1.13 ± 0.044; (concentration: 10mM) 1.1 ± 0.069.
For the target UniProt P23497 and related entries, the NP40-soluble protein abundance was 0.981 ± 0.069 (concentration: 1mM); 0.97 ± 0.054 (concentration: 2mM); 0.981 ± 0.047 (concentration: 4mM); 0.971 ± 0.056 (concentration: 6mM); 0.939 ± 0.043 (concentration: 8mM); 0.931 ± 0.04 (concentration: 10mM).
